Results are given in words; binding and its absence hold for the method and conditions named. In cells and extracts the contact can be indirect. Some entries that bind do so weakly or less than the wild type.
T1: Protein kinase C (PKC)-interacting cousin of thioredoxin (PICOT) (human (endogenous in Jurkat)) (UniProt O76003)
T1 sequence: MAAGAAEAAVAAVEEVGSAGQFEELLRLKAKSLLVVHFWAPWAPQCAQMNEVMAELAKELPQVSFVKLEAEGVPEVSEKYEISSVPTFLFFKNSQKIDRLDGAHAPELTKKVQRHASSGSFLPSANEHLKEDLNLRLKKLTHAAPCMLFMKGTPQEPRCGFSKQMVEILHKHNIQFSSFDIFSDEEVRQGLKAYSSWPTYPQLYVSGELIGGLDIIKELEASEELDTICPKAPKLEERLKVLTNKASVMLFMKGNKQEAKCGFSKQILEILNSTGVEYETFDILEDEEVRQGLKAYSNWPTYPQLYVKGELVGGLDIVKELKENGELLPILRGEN

By UniProt entry, the sequences of proteins in these tests, tags left out.
UniProt O75530: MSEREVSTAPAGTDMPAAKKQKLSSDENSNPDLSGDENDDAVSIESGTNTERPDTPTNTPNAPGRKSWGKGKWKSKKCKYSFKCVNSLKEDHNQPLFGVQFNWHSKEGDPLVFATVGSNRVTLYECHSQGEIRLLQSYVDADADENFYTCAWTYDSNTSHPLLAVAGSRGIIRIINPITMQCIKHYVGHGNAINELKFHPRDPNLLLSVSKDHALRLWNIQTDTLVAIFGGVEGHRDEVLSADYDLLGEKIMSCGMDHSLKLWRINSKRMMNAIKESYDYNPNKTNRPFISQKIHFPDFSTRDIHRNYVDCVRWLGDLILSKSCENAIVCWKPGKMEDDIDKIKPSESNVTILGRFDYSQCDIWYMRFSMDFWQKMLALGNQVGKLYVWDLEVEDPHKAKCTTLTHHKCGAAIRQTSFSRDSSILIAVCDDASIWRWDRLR
UniProt Q15022: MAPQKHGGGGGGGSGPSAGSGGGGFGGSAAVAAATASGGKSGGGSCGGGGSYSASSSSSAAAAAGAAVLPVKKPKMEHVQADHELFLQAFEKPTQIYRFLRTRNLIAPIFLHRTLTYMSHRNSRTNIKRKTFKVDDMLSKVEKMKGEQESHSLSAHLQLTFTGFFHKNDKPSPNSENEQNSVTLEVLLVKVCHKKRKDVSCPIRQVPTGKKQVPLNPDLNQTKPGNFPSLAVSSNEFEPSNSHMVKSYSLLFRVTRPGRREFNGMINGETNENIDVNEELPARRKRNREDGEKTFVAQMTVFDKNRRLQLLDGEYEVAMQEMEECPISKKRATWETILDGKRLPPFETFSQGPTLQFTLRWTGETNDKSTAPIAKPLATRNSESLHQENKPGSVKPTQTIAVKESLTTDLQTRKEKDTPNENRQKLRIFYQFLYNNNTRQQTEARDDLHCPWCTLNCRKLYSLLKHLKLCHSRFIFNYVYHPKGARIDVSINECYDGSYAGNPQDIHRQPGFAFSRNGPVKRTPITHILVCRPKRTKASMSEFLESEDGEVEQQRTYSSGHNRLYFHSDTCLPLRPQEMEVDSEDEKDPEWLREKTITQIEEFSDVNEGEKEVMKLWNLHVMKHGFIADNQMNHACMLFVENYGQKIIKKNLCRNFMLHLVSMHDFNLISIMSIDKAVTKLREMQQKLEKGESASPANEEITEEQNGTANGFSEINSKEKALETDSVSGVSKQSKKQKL

B1: Protein kinase C (PKC)-interacting cousin of thioredoxin (PICOT) (protein, UniProt O76003 1-335)
chain: MAAGAAEAAVAAVEEVGSAGQFEELLRLKAKSLLVVHFWAPWAPQCAQMNEVMAELAKELPQVSFVKLEAEGVPEVSEKYEISSVPTFLFFKNSQKIDRLDGAHAPELTKKVQRHASSGSFLPSANEHLKEDLNLRLKKLTHAAPCMLFMKGTPQEPRCGFSKQMVEILHKHNIQFSSFDIFSDEEVRQGLKAYSSWPTYPQLYVSGELIGGLDIIKELEASEELDTICPKAPKLEERLKVLTNKASVMLFMKGNKQEAKCGFSKQILEILNSTGVEYETFDILEDEEVRQGLKAYSNWPTYPQLYVKGELVGGLDIVKELKENGELLPILRGEN

Experiments:
[1] = biological target: T1, Protein kinase C (PKC)-interacting cousin of thioredoxin (PICOT) (human (endogenous in Jurkat)); assay: co-IP; protein-protein ChIP: Jurkat cells fixed in 1% formaldehyde for 10 min, sonicated chromatin lysate, precleared, incubated overnight at 4 °C with protein G-sepharose bead-immobilized mouse anti-PICOT mAbs or normal mouse IgG; washes with low-salt, high-salt, LiCl and Tris-EDTA buffers; immunoblot
[2] = biological target: embryonic ectoderm development (EED) protein (human (endogenous in Jurkat)) (UniProt O75530); assay: co-IP; reciprocal protein-protein ChIP: Jurkat T cell chromatin lysates, immunoprecipitation with anti-EED Abs; immunoblot for PICOT and EZH2

binding [1]	binding [2]	Molecule
no binding		SUZ12 (from UniProt Q15022 1-739)
binds		embryonic ectoderm development (EED) protein (from UniProt O75530 1-441)
	binds	B1

Reference: publication PMC6746821
